Reference: patent US20160340429A1 (KADMON, published 2016)
Substitutions are numbered along the chain they refer to. No constants are given. Whether binding was seen depends on the method and setting. Some entries that bind do so weakly or less than the wild type.

By UniProt entry, the sequences of proteins in these tests, tags left out. Where a name states a change or a piece, a line headed by the entry shows the natural chain unless it says otherwise.
UniProt Q9NZQ7: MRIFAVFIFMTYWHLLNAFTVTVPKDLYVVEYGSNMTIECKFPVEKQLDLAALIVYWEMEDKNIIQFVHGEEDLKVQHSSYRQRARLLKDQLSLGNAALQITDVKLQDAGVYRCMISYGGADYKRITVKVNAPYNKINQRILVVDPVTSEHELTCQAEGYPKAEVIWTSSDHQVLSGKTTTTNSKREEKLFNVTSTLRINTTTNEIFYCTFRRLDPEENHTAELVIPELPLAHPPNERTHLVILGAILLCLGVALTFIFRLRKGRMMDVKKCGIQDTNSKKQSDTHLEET

B1: tctR3κA8 (antibody, V domains shown)
VH: EVQLLESGGGLVQPGGSLRLSCAASGFTFSWYIMAWVRQAPGKGLEWVSYISSSGGFTAYADSVKGRFTISRDNSKNTLYLQMNSLRAEDTAVYYCARIGGTDVFDIWGQGTLVTVSS
VL: DIQMTQSPSTLSASVGDRVTITCRASQSISSWLAWYQQKPGKAPKLLIYKASSLESGVPSRFSGSGSGTDFTLTITSLLPEDFATYYCQQSYSSPWTFGQGTKVEVK
B2: sR3λD7 (antibody, V domains shown)
VH: EVQLLESGGGLVQPGGSLRLSCAASGFTFSKYRMAWVRQAPGKGLEWVSYIYPSGGFTFYADSVKGRFTISRDNSKNTLYLQMNSLRAEDTAVYYCAKDIGQWLFVFDYWGQGTLVTVSS
VL: QSELTQPASVSGSPGQSITISCTGTSSDVGGYNYVSWYQQHPGKAPKLMIYDVSNRPSGVSNRFSGSKSGNTASLTISGLQAEDEADYYCSSYTNTITVVFGGGTKLTVLG
B3: tccR3κB7 (antibody, V domains shown)
VH: EVQLLESGGGLVQPGGSLRLSCAASGFTFSSYQMGWVRQAPGKGLEWVSWIVPSGGFTHYADSVKGRFTISRDNSKNTLYLQMNSLRAEDTAVYYCARDAGYRSGYYYYYGMDVWGQGTTVTVSS
VL: DIQMTQSPSSLSASVGDRVTITCRASQSIASYLNWYQQKPGKAPKLLIYGASSLQSGVPSRFSGSGSGTDFTLTIRSLQPEDIATYYCQQSYGISYTFGQGTKLEIK
B4: tccR3κA4 (antibody, V domains shown)
VH: EVQLLESGGGLVQPGGSLRLSCAASGFTFSPYDMGWVRQAPGKGLEWVSSIYSSGGWTKYADSVKGRFTISRDNSKNTLYLQMNSLRAEDTAVYYCARDNWNDGAFDVWGQGTMVTVSS
VL: DIQMTQSPSTLSASVGDRVTITCRASQSISSWLAWYQQKPGKAPKLLIFAASRLQTGVPSRFSGSGSGTDFTLTISSLQPEDSATYYCQQAKTFPLTFGGGTRVEIK
B5: tccR3κD9 (antibody, V domains shown)
VH: EVQLLESGGGLVQPGGSLRLSCAASGFTFSHYPMSWVRQAPGKGLEWVSRIWSSGGNTYYADSVKGRFTISRDNSKNTLYLQMNSLRAEDTAVYYCARGGYFDWLYPHDYWGQGTLVTVSS
VL: DIQMTQSPSSVSASVGDRVTITCRASQGISSWLSWYQQKPGAAPKLLIYAASSLQSGVPARFSGSGSGREFTLTISNLQPEDFATYYCQQGNSFPPTFGQGTKVDIK
B6: tccR3κF8 (antibody, V domains shown)
VH: B4 VH with P31F, G35S, Y52V, S53P, K59F, N100S, F106S, V108I
VL: DIQMTQSPSSVSASVGDRVTITCRASQGISSWLAWYQQKPGKAPKLLIYAASSLQSGVPSRFSGSGSGTDFTLTINSLQPEDFATYYCQQANSFPFTFGPGTKVDFK
B7: tccR3κA11 (antibody, V domains shown)
VH: EVQLLESGGGLVQPGGSLRLSCAASGFTFSWYLMKWVRQAPGKGLEWVSYIGSSGGFTAYADSVKGRFTISRDNSKNTLYLQMNSLRAEDTAMYYCAREDDFGAMDVWGQGTTVTVSS
VL: DIQMTQSPSSLSASVGDRVTITCRASQTVSKYFNWFQQKPGEAPKLLIYATSTLQSGVPSRFSGSGYGTEFTLTISSLQPEDFATYYCQQSYTTPWTFGQGTKVEIK
B8: tccR3λF8 (antibody, V domains shown)
VH: EVQLLESGGGLVQPGGSLRLSCAASGFTFSIYSMNWVRQAPGKGLEWVSVIYPSGGFTHYADSVKGRFTISRDNSKNTLYLQMNSLRAEDTAVYYCARGRKTTVTDFDYWGQGTLVTVSS
VL: B2 VL with E3A, L48V, D52E, N55H, N95S, T96G, I97S, V99R, L107V
B9: tccR3λH4 (antibody, V domains shown)
VH: EVQLLESGGGLVQPGGSLRLSCAASGFTFSAYRMVWVRQAPGKGLEWVSRIYPSGGFTFYADSVKGRFTISRDNSKNTLYLQMNSLRAEDTAVYYCARALGPLSPLDSWGQGTLVTVSS
VL: B2 VL with D52E, S61P, N62D, A86G, T94R, N95S, T96G, I97N, V99L, L107V

Columns and labels:
[1] = target: human PD-L1 on cells (PDLI-293 / HEK-293 cells expressing PD-L1, MDA-MB-231 cells, activated CD4 cells, monocyte-derived dendritic cells) (human) (UniProt Q9NZQ7); experiment: binding to HEK-293 cells expressing PD-L1
[2] = target: recombinant human PDL1-Fc (PDL1 ECD and human Fc fusion protein, Q9NZQ7) (human) (UniProt Q9NZQ7); experiment: solid-phase ELISA

Binder | binding [1] | binding [2]
B1 | binds | binds
B2 | binds | binds
B3 | binds | binds
B4 | binds | binds
B5 | binds | binds
B6 | binds | binds
B7 | binds | binds
B8 | binds | binds
B9 | binds | binds
